Measurements published in US20100190764A1, “Novel compounds” (Glaxo Group Limited, priority 2007, published 2010).
Counter-ions that a name gives are not always drawn. Some results were stated once for a whole list of compounds, not compound by compound. Some ranges recur; such a range may be that of the whole group of compounds.

The chains behind the UniProt entries cited, without tags or fusion partners.
UniProt P28223, whole entry: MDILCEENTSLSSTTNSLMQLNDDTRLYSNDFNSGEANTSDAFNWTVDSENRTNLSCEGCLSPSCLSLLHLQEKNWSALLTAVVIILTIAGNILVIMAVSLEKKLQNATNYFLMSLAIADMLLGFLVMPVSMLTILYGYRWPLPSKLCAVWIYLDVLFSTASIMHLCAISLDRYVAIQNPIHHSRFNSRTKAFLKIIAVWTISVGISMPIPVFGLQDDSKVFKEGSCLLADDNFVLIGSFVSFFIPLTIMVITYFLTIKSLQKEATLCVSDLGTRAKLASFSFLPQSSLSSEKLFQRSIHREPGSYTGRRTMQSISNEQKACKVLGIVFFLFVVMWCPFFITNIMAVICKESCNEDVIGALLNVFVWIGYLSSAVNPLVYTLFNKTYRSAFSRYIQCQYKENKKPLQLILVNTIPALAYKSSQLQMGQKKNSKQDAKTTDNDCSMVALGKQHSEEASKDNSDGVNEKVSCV
UniProt P35367, whole entry: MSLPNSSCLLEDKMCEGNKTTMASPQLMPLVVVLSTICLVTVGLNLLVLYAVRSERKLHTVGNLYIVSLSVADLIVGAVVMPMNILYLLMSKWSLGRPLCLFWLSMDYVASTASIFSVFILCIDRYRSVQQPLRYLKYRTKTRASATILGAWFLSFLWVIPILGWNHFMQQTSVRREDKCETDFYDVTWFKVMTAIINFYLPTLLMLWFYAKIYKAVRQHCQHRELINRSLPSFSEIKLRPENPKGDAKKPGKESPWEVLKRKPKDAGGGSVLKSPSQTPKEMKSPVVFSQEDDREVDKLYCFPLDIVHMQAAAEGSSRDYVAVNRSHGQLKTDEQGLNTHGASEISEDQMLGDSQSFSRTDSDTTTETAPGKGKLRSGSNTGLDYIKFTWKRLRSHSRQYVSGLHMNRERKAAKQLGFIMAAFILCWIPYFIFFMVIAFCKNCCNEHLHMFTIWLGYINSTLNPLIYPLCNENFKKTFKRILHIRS

What was measured:
Format in all cases: cell-based
[1] = target: T1, human 5-HT2A serotonin receptor (Homo sapiens, UniProt P28223); test: Alternative 5HT2A antagonist assay (aequorin luminescence, HEK cells); conditions: HEK cells with aequorin, luminescence (Lumilux), sub-maximal concentration of 5-HT
T1 construct: expressed in transfected cells

[2] = target: T2, recombinant human H1 receptor (Homo sapiens, UniProt P35367); test: H1 antagonist assay (FLIPR calcium, CHO cells); conditions: FLIPR antagonist mode, histamine approximately 4×EC50
T2 construct: expressed in transfected cells

[3] = target: T3, recombinant human 5-HT2A (Homo sapiens, UniProt P28223); test: 5HT2A antagonist assay (FLIPR calcium, SH-SY5Y cells); conditions: FLIPR antagonist mode, 5-HT approximately 4×EC50
T3 construct: expressed in transfected cells

Structure (SMILES)	fpki against 5HT2A [1]	fpki against H1 [2]	fpki against 5HT2A [3]
O=C(O)CCNC1CCC2(Cc3ccccc3Cc3ccccc32)C1 (mixture of isomers) [Compound 1, N-(5′,11-Dihydrospiro[cyclopentane-1,10′-dibenzo[,d]cyclohepten]-3-yl)-b-alanine formate salt]	5.6-9.0		
CC1(C(=O)O)CCN(C2CCC3(Cc4ccccc4Cc4ccccc43)C2)C1 (mixture of isomers) [Compound 81, 1-(5′,11′-Dihydrospiro[cyclopentane-1,10′-dibenzo[a,d]cyclohepten]-3-yl)-3-methyl-3-pyrrolidinecarboxylic acid]	5.6-9.0		
O=C(O)C1=CCCN(C2CCC3(Cc4cc(F)ccc4Cc4ccccc43)C2)C1 (mixture of isomers) [Compound 99, 1-(2′-Fluoro-5′,11′-dihydrospiro[cyclopentane-1,10′-dibenzo[a,d]cyclohepten]-3-yl)-1,2,5,6-tetrahydro-3-pyridinecarboxylic acid]		6.0-9.2	
O=C(O)CC1CCN(C2CCC3(Cc4ccccc4Cc4ccccc43)C2)C1 (mixture of isomers) [Compound 122, [1-(5′,11′-Dihydrospiro[cyclopentane-1,10′-dibenzo[a,d]cyclohepten]-3-yl)-3-pyrrolidinyl]acetic acid]			5.8-8.8
O=C(O)C1=CCCN(C2CCC3(Cc4ccccc4Cc4ccccc43)C2)C1 (single isomer, unassigned) [Compound 7, 1-(5′,11′-Dihydrospiro[cyclopentane-1,10′-dibenzo[a,d]cyclohepten]-3-yl)-1,2,5,6-tetrahydro-3-pyridinecarboxylic acid]	5.6-9.0		
O=C(O)C1(F)CCN(C2CCC3(Cc4ccccc4Cc4ccccc43)C2)CC1 (single isomer, unassigned) [Compound 18, 1-(5′,11′-Dihydrospiro[cyclopentane-1,10′-dibenzo[a,d]cyclohepten]-3-yl)-4-fluoro-4-piperidinecarboxylic acid]	5.6-9.0		
O=C(O)C1CN(C2CCC3(Cc4ccccc4Cc4ccccc43)C2)CCO1 (single isomer, unassigned) [Compound 20, 4-(5′,11′-Dihydrospiro[cyclopentane-1,10′-dibenzo[a,d]cyclohepten]-3-yl)-2-morpholinecarboxylic acid]	5.6-9.0		5.8-8.8
CCOC(=O)C1CCCN(C2CCC3(Cc4ccccc4Cc4ccccc43)C2)C1 (single isomer, unassigned) [Compound 31, Ethyl 1-(5′,11′-dihydrospiro[cyclopentane-1,10′-dibenzo[a,d]cyclohepten]-3-yl)-3-piperidinecarboxylate]		6.0-9.2	5.8-8.8
O=C(O)C1=CCCN(C2CCC3(Cc4ccccc4Oc4ccccc43)C2)C1 (single isomer, unassigned) [Compound 53, 1-(11′H-spiro[cyclopentane-1,10′-dibenzo[b,f]oxepin]-3-yl)-1,2,5,6-tetrahydro-3-pyridinecarboxylic acid]	5.6-9.0	6.0-9.2	
O=C(O)C1=CCN(C2CCC3(Cc4ccccc4Oc4ccccc43)C2)CC1 (single isomer, unassigned) [Compound 58, 1-(11′H-spiro[cyclopentane-1,10′-dibenzo[b,f]oxepin]-3-yl)-1,2,3,6-tetrahydro-4-pyridinecarboxylic acid]	5.6-9.0	6.0-9.2	
O=C(O)C1=CCN(C2CCC3(Cc4ccccc4Oc4ccccc43)C2)CC1 (single isomer, unassigned) [Compound 59, 1-(11′H-spiro[cyclopentane-1,10′-dibenzo[b,f]oxepin]-3-yl)-1,2,3,6-tetrahydro-4-pyridinecarboxylic acid]			5.8-8.8
O=C(O)C1(F)CCN(C2CCC3(Cc4ccccc4Oc4ccccc43)C2)CC1 (single isomer, unassigned) [Compound 63, 4-Fluoro-1-(11′H-spiro[cyclopentane-1,10′-dibenzo[b,f]oxepin]-3-yl)-4-piperidinecarboxylic acid]		6.0-9.2	
O=C(O)C1(F)CCN(C2CCC3(Cc4ccccc4Oc4ccccc43)C2)CC1 (single isomer, unassigned) [Compound 64, 4-Fluoro-1-(11′H-spiro[cyclopentane-1,10′-dibenzo[b,f]oxepin]-3-yl)-4-piperidinecarboxylic acid]	5.6-9.0		
O=C(O)C1=CCN(C2CCC3(Cc4ccccc4Cc4ccccc43)C2)CC1 (single isomer, unassigned) [Compound 69, 1-(5′,11′-Dihydrospiro[cyclopentane-1,10′-dibenzo[a,d]cyclohepten]-3-yl)-1,2,3,6-tetrahydro-4-pyridinecarboxylic acid]	5.6-9.0	6.0-9.2	5.8-8.8
O=C(O)C1CN(C2CCC3(Cc4ccccc4Cc4ccccc43)C2)C1 (single isomer, unassigned) [Compound 75, 1-(5′,11′-Dihydrospiro[cyclopentane-1,10′-dibenzo[a,d]cyclohepten]-3-yl)-3-azetidinecarboxylic acid formate salt]	5.6-9.0	6.0-9.2	5.8-8.8
CC1(C(=O)O)CCN(C2CCC3(Cc4ccccc4Cc4ccccc43)C2)C1 (single isomer, unassigned) [Compound 80, 1-(5′,11′-Dihydrospiro[cyclopentane-1,10′-dibenzo[a,d]cyclohepten]-3-yl)-3-methyl-3-pyrrolidinecarboxylic acid]	5.6-9.0		
O=C(O)C1CCN(C2CCC3(Cc4ccccc4Cc4ccccc43)C2)C1 (single isomer, unassigned) [Compound 88, 1-(5′,11′-Dihydrospiro[cyclopentane-1,10′-dibenzo[a,d]cyclohepten]-3-yl)-3-pyrrolidinecarboxylic acid]			5.8-8.8
O=C(O)C1CN(C2CCC3(Cc4ccccc4Cc4ccccc43)C2)CCN1 (single isomer, unassigned) [Compound 93, 4-(5′,11′-Dihydrospiro[cyclopentane-1,10′-dibenzo[a,d]cyclohepten]-3-yl)-2-piperazinecarboxylic acid]	5.6-9.0	6.0-9.2	
O=C(O)C1CN(C2CCC3(Cc4ccccc4Cc4ccccc43)C2)CCN1 (single isomer, unassigned) [Compound 94, 4-(5′,11′-Dihydrospiro[cyclopentane-1,10′-dibenzo[a,d]cyclohepten]-3-yl)-2-piperazinecarboxylic acid]			5.8-8.8
O=C(O)C1(O)CCN(C2CCC3(Cc4ccccc4Cc4ccccc43)C2)CC1 (single isomer, unassigned) [Compound 115, 1-(5′,11′-Dihydrospiro[cyclopentane-1,10′-dibenzo[a,d]cyclohepten]-3-yl)-4-hydroxy-4-piperidinecarboxylic acid]	5.6-9.0		
NC(=O)C1CCCN(C2CCC3(Cc4ccccc4Cc4ccccc43)C2)C1 (single isomer, unassigned) [Compound 116, 1-(5′,11′-Dihydrospiro[cyclopentane-1,10′-dibenzo[a,d]cyclohepten]-3-yl)-3-piperidinecarboxamide]	5.6-9.0		
O=C(O)CC1CCN(C2CCC3(Cc4ccccc4Cc4ccccc43)C2)C1 (single isomer, unassigned) [Compound 123, [1-(5′,11′-Dihydrospiro[cyclopentane-1,10′-dibenzo[a,d]cyclohepten]-3-yl)-3-pyrrolidinyl]acetic acid]			5.8-8.8
CC1(C(=O)O)CCN(C2CCC3(Cc4ccccc4Cc4ccccc43)C2)CC1 (single isomer, unassigned) [Compound 127, 1-(5′,11′-Dihydrospiro[cyclopentane-1,10′-dibenzo[a,d]cyclohepten]-3-yl)-4-methyl-4-piperidinecarboxylic acid]	5.6-9.0	6.0-9.2	
O=C(O)C1CN(C2CCC3(Cc4ccccc4Oc4ccccc43)C2)C1.O=CO (single isomer, unassigned) [Compound 133, 1-(11′H-spiro[cyclopentane-1,10′-dibenzo[b,f]oxepin]-3-yl)-3-azetidinecarboxylic acid formic acid salt]	5.6-9.0		
O=C(O)CC1CN(C2CCC3(Cc4ccccc4Cc4ccccc43)C2)C1.O=CO (single isomer, unassigned) [Compound 138, [1-(5′,11′-Dihydrospiro[cyclopentane-1,10′-dibenzo[a,d]cyclohepten]-3-yl)-3-azetidinyl]acetic acid formic acid salt]	5.6-9.0	6.0-9.2	
O=C(O)CC1CCN(C2CCC3(Cc4ccccc4Cc4ccccc43)C2)CC1 (single isomer, unassigned) [Compound 146, [1-(5′,11′-Dihydrospiro[cyclopentane-1,10′-dibenzo[a,d]cyclohepten]-3-yl)-4-piperidinyl]acetic acid]	5.6-9.0		
O=C(O)C1(F)CCCN(C2CCC3(Cc4ccccc4Cc4ccccc43)C2)C1 (single isomer, unassigned) [Compound 150, 1-(5′,11′-Dihydrospiro[cyclopentane-1,10′-dibenzo[a,d]cyclohepten]-3-yl)-3-fluoro-3-piperidinecarboxylic acid]	5.6-9.0	6.0-9.2	
O=C(O)C1CCCN(C2CCC3(C2)C(=O)c2cc(Cl)ccc2Oc2ccccc23)C1 (stereo not drawn) [Compound 104, 1-(2′-Chloro-11′-oxo-11′H-spiro[cyclopentane-1,10′-dibenzo[b,f]oxepin]-3-yl)-3-piperidinecarboxylic acid-hydrochloride]		6.0-9.2	
O=C(O)[C@@H]1CCCN(C2CCC3(Cc4ccccc4Oc4ccccc43)C2)C1 (stereo partly drawn) [Compound 108, (3R)-1-(11′H-spiro[cyclopentane-1,10′-dibenzo[b,f]oxepine]-3-yl)-3-piperidinecarboxylic acid]	5.6-9.0		5.8-8.8
